# Results are given in words; binding and its absence hold for the method and conditions named. In cells and extracts the contact can be indirect. A yes stands for co-enrichment or nearness to the bait. Other partners may have been found. Tags and fused reporters may be left off the sequences shown.
# T1: His-YdfD (E. coli BL21(DE3)) (UniProt P29010)
# T1 sequence: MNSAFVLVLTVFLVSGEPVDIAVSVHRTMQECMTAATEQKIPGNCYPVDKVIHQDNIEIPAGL
# Target: T1, His-YdfD (E. coli BL21(DE3))
# Assay: affinity purification with mass spectrometry; His-YdfD made in E. coli BL21(DE3) as bait for the whole cell lysate on Ni-NTA; 3 washes with 20 mM Tris, 250 mM NaCl, pH 8.0; SDS-PAGE, trypsin, MS
binder,measurement,value
"IspG-His (enzyme, E. coli BL21(DE3), UniProt P62620 1-372, looked up, ispG amplified from the E. coli BL21(DE3) genome; also called His-tagged ispG; GcpE; source: E. coli BL21(DE3); coexpressed with YdfD constructs, in lysate; and purified (Ni-NTA, Superdex 200)) MHNQAPIQRRKSTRIYVGNVPIGDGAPIAVQSMTNTRTTDVEATVNQIKALERVGADIVRVSVPTMDAAEAFKLIKQQVNVPLVADIHFDYRIALKVAEYGVDCLRINPGNIGNEERIRMVVDCARDKNIPIRIGVNAGSLEKDLQEKYGEPTPQALLESAMRHVDHLDRLNFDQFKVSVKASDVFLAVESYRLLAKQIDQPLHLGITEAGGARSGAVKSAIGLGLLLSEGIGDTLRVSLAADPVEEIKVGFDILKSLRIRSRGINFIACPTCSRQEFDVIGTVNALEQRLEDIITPMDVSIIGCVVNGPGEALVSTLGVTGGNKKSGLYEDGVRKDRLDNNDMIDQLEARIRAKASQLDEARRIDVQQVEK",binding,binds
